The supplement of paper PMC6078165

Tested on: BT20
Experiment: relative JC-1 red fluorescence (viability) vs pre-drug, coculture with fibroblast (fraction); higher = more viable cancer cells
Procedure: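 JC-1 labelled TNBC cells cocultured 1:1 (1,500 cells each) with CellTrace Violet stained primary or stromal fibroblasts in 384-well plates in FluoroBrite medium, treated with one of 42 anticancer drugs at 0.1, 1, 10 or 100 uM. JC-1 red fluorescence (mitochondrial integrity in cancer cells only) was read by plate reader every 8 h for 72 h. Values are normalised to each well's pre-drug value. The stock of one drug was tenfold lower, so its dose labels may be too high.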

CC(=O)c1c(C)c2cnc(Nc3ccc(N4CCNCC4)cn3)nc2n(C2CCCC2)c1=O [Palbociclib]
relative JC-1 red fluorescence
Conditions | 8 h | 16 h | 24 h | 32 h | 40 h | 48 h | 56 h | 64 h | 72 h
0.1 µM, coculture fibroblast: C12385 | 0.9292 | 0.863 | 0.858 | 0.801 | 0.751 | 0.728 | 0.704 | 0.686 | 0.675
0.1 µM, coculture fibroblast: H6013 | 0.87 | 0.889 | 0.852 | 0.8 | 0.766 | 0.748 | 0.748 | 0.728 | 0.722
0.1 µM, coculture fibroblast: H6019 | 0.8517 | 0.759 | 0.729 | 0.669 | 0.62 | 0.601 | 0.569 | 0.545 | 0.532
0.1 µM, coculture fibroblast: H6076 | 0.984 | 0.8898 | 0.814 | 0.7833 | 0.7454 | 0.7254 | 0.7067 | 0.703 | 0.682
0.1 µM, coculture fibroblast: H6231 | 0.9263 | 0.93 | 0.811 | 0.742 | 0.695 | 0.651 | 0.616 | 0.5965 | 0.569
0.1 µM, coculture fibroblast: HADF | 0.896 | 0.882 | 0.86 | 0.816 | 0.787 | 0.756 | 0.7367 | 0.721 | 0.695
0.1 µM, coculture fibroblast: HCFa | 0.949 | 0.859 | 0.812 | 0.768 | 0.731 | 0.708 | 0.682 | 0.67 | 0.635
0.1 µM, coculture fibroblast: HCPF | 0.863 | 0.954 | 0.8558 | 0.8003 | 0.7555 | 0.7099 | 0.6628 | 0.642 | 0.6083
0.1 µM, coculture fibroblast: HHSteC | 0.9133 | 0.84 | 0.8196 | 0.7432 | 0.698 | 0.665 | 0.641 | 0.617 | 0.586
0.1 µM, coculture fibroblast: HMF | 0.773 | 0.919 | 0.815 | 0.753 | 0.702 | 0.658 | 0.621 | 0.598 | 0.572
0.1 µM, coculture fibroblast: HPFa | 0.972 | 0.896 | 0.893 | 0.807 | 0.789 | 0.764 | 0.734 | 0.721 | 0.684
0.1 µM, coculture fibroblast: HUF | 0.9055 | 0.808 | 0.804 | 0.732 | 0.69 | 0.66 | 0.652 | 0.638 | 0.623
0.1 µM, coculture fibroblast: Hs5 | 0.76 | 0.929 | 0.847 | 0.789 | 0.735 | 0.6961 | 0.6517 | 0.618 | 0.5948
0.1 µM, coculture fibroblast: Hs27A | 0.851 | 0.885 | 0.886 | 0.8714 | 0.817 | 0.786 | 0.76 | 0.726 | 0.671
0.1 µM, coculture fibroblast: Hs343T | 0.9544 | 0.8595 | 0.7849 | 0.738 | 0.697 | 0.659 | 0.619 | 0.601 | 0.571
0.1 µM, coculture fibroblast: WS1 | 0.891 | 0.785 | 0.751 | 0.698 | 0.663 | 0.654 | 0.641 | 0.626 | 0.626
1 µM, coculture fibroblast: C12385 | 0.891 | 0.786 | 0.769 | 0.713 | 0.665 | 0.644 | 0.623 | 0.607 | 0.59
1 µM, coculture fibroblast: H6013 | 0.9028 | 0.873 | 0.844 | 0.802 | 0.755 | 0.747 | 0.753 | 0.731 | 0.72
1 µM, coculture fibroblast: H6019 | 0.882 | 0.8017 | 0.795 | 0.732 | 0.691 | 0.676 | 0.64 | 0.612 | 0.59
1 µM, coculture fibroblast: H6076 | 0.971 | 0.9 | 0.8481 | 0.8207 | 0.81145 | 0.7912 | 0.785 | 0.785 | 0.761
1 µM, coculture fibroblast: H6231 | 0.779 | 0.9819 | 0.865 | 0.7912 | 0.74 | 0.699 | 0.658 | 0.633 | 0.603
1 µM, coculture fibroblast: HADF | 0.965 | 0.904 | 0.882 | 0.841 | 0.814 | 0.786 | 0.77 | 0.758 | 0.73
1 µM, coculture fibroblast: HCFa | 0.9068 | 0.892 | 0.873 | 0.821 | 0.787 | 0.759 | 0.733 | 0.717 | 0.673
1 µM, coculture fibroblast: HCPF | 0.817 | 0.941 | 0.873 | 0.814 | 0.769 | 0.718 | 0.681 | 0.666 | 0.631
1 µM, coculture fibroblast: HHSteC | 0.929 | 0.894 | 0.877 | 0.805 | 0.763 | 0.734 | 0.707 | 0.68 | 0.659
1 µM, coculture fibroblast: HMF | 0.869 | 0.905 | 0.821 | 0.766 | 0.7388 | 0.701 | 0.681 | 0.664 | 0.63
1 µM, coculture fibroblast: HPFa | 0.938 | 0.917 | 0.954 | 0.894 | 0.896 | 0.863 | 0.856 | 0.83 | 0.801
1 µM, coculture fibroblast: HUF | 0.943 | 0.8374 | 0.832 | 0.78 | 0.751 | 0.718 | 0.712 | 0.702 | 0.689
1 µM, coculture fibroblast: Hs5 | 0.885 | 0.896 | 0.84 | 0.784 | 0.752 | 0.715 | 0.68 | 0.657 | 0.622
1 µM, coculture fibroblast: Hs27A | 0.717 | 0.917 | 0.924 | 0.895 | 0.849 | 0.832 | 0.813 | 0.785 | 0.735
1 µM, coculture fibroblast: Hs343T | 0.872 | 0.8834 | 0.806 | 0.756 | 0.71 | 0.679 | 0.663 | 0.653 | 0.635
1 µM, coculture fibroblast: WS1 | 0.885 | 0.763 | 0.736 | 0.676 | 0.629 | 0.606 | 0.581 | 0.558 | 0.551

Values are relative to the signal before dosing, not to a vehicle control; the signal also falls without drug.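 Fibroblast labels name human fibroblasts: mostly primary ones from tissues such as uterus (C12385, HUF), lung (H6013), bone (Hs27A), adrenal (HADF) and skin (WS1), plus mammary HMF and breast cancer-associated Hs343T. The cancer cells are basal-like or mesenchymal-like triple-negative breast cancer lines. The paper calls a changed response a hit when it shifts by more than 3x the replicate standard deviation. The tissue of the other fibroblasts is not given here.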
